In US12708630B2, “Combined therapy of 4′-thio-5-aza-2′-deoxycytidine and Venetoclax” (PINOTBIO, INC., priority 2021, dated 2026):
For at least one compound, name, drawing or mass did not settle the structure.

Tests used:
[1] = test system: systemic MV4-11 engraftment model; conditions: Aza-T-dCyd oral 1.5, 2.0 and 2.5 mg/kg; decitabine/azacytidine at standard preclinical dose/schedule
Experimental: After establishing a systemic MV4-11 engraftment model that more accurately depicts the disease in humans, Aza-T-dCyd was administered orally at doses ranging from 0.4 to 1.5 mg/kg.
After establishment of the systemic MV4-11 engraftment model, Aza-T-dCyd was administered orally at doses of 1.5, 2.0, and 2.5 mg/kg (using the standard dose/dosing schedule used in preclinical trials for decitabine/azacytidine).
After establishing a systemic MV4-11 engraftment model, blood was collected at pre-treatment (Day 21) and mid-treatment (Day 36, 56, 77) in the Aza-T-dCyd and Decitabine/Azacytidine groups and analyzed for complete blood count (CBC) values.
To determine whether the anti-cancer efficacy in the systemic MV4-11 engraftment model was directly related to the ability to suppress the number of cancer cells, we performed experiments to measure body luminescence after systemic engraftment using the luciferase-transfected Mv4-11 cell line.

MV4-11 AML cells = assay: MV4-11 AML xenograft implanted subcutaneously, combination with venetoclax; assay type: in vivo, mice; conditions: administered alone (Aza-T-dCyd 2 mpk), FIGS. 30 and 31
Experimental: After establishing a xenograft systemic AML model in which MV4-11 AML cells were implanted subcutaneously in mice, Aza-T-dCyd alone at 2.0 mpk for 1 cycle (5 days on, 2 days off, 5 days on, 9 days off) was administered (PO) or Aza-T-dCyd 0.5, 1.0 or 2.0 mpk plus venetoclax 50 mpk or 100 mpk administered orally (PO) for 1 cycle (venetoclax on for 5 days, off for 2 days, repeated for 3 weeks). Anti-cancer efficacy was determined in disease models in which azacitidine 5.0 mpk was administered intraperitoneally (IP) alone or in combination with optimal dose of azacitidine (2.5 mpk) and venetoclax 50 mpk or 100 mpk as a control.

Nc1ncn([C@@H]2O[C@H](CO)[C@@H](O)[C@H]2O)c(=O)n1 [Azacytidine, reference compound]
anti-AML activity and survival [1]: no inhibition of leukemia progression | anti-cancer effect (tumor volume), single agent (MV4-11 AML cells): failure of azacitidine alone to reduce tumor volume
